US20060172958A1 (published 2006)

Molecular target: T1, hBoo (Bcl-B) yeast two-hybrid bait from pAS2 (human, UniProt Q9HD36 1-204)
T1 construct: also called pAS2-hBoo; pAS2-Bcl-B; not shown: bait fusion partner encoded by the pAS2 vector
T1 sequence (looked up): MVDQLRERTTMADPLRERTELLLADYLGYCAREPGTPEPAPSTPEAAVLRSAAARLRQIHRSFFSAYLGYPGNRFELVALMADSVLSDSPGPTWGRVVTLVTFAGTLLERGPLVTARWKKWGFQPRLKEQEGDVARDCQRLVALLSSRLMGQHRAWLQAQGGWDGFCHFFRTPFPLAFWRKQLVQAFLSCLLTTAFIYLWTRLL
Test: yeast two-hybrid, hBoo bait against human liver cDNA library

binding result: binds
B1: yeast two-hybrid library clone encoding amino acids 103-277 of phospholipid scramblase 3 (other)
chain: CNRYELRSGAGQPLGQAAEESNCCARLCCGARRPLRVRLADPGDREVLRLLRPLHCGCSCCPCGLQEMEVQAPPGTTIGHVLQTWHPFLPKFSIQDADRQTVLRVVGPCWTCGCGTDTNFEVKTRDESRSVGRISKQWGGLVREALTDADDFGLQFPLDLDVRVKAVLLGATFLI
notes: also called PLS3 clone; cDNA cloned from the yeast two-hybrid screen; not shown: fusion partner of the Clontech MatchMaker human liver library vector
